Measurements taken from the supplement of paper PMC10849652.
This is one part of the list. Residues, ends and D or L forms follow the SMILES beside them. *: point of attachment. Cbz = O=C(OCc1ccccc1)*

Protein sequences, listed by entry. Tags and fused reporters are not part of them. Lines headed by an entry give the natural chain unless they say otherwise; changes in a name come on top.
UniProt Q96E11: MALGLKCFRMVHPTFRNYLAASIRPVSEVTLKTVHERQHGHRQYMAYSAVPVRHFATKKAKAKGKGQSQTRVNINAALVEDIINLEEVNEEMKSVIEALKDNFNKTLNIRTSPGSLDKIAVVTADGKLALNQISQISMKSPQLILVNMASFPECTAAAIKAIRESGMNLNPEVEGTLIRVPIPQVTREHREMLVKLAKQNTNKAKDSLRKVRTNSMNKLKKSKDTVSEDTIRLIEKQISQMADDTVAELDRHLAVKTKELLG
UniProt Q9C0I1: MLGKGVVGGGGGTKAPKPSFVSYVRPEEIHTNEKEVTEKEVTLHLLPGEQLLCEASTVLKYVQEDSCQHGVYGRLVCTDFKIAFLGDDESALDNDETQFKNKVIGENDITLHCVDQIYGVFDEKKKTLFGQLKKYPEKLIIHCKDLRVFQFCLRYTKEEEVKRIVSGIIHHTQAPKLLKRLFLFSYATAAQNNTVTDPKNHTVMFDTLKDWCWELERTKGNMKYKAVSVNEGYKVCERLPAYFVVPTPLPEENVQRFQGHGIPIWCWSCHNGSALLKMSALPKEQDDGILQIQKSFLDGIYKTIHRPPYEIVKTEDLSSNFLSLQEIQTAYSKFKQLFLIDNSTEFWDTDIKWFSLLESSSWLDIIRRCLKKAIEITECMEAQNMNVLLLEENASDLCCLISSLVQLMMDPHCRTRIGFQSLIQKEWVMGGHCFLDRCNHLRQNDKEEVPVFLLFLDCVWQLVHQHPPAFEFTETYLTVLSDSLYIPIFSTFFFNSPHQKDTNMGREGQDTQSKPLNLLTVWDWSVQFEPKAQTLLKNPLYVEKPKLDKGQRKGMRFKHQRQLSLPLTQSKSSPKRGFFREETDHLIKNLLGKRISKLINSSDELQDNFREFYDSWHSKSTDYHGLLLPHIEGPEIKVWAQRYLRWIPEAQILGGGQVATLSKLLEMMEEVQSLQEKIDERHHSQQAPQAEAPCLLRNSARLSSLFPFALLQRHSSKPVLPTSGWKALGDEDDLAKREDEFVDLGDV
UniProt Q96S97: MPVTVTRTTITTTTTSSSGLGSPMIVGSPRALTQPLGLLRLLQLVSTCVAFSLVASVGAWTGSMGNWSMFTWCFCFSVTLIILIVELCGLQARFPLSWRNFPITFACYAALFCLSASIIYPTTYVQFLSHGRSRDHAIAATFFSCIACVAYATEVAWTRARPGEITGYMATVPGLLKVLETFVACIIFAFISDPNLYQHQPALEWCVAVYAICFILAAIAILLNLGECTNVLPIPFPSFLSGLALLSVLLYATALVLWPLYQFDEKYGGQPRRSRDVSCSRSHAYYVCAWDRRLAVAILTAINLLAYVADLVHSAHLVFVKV
UniProt Q9NVV4: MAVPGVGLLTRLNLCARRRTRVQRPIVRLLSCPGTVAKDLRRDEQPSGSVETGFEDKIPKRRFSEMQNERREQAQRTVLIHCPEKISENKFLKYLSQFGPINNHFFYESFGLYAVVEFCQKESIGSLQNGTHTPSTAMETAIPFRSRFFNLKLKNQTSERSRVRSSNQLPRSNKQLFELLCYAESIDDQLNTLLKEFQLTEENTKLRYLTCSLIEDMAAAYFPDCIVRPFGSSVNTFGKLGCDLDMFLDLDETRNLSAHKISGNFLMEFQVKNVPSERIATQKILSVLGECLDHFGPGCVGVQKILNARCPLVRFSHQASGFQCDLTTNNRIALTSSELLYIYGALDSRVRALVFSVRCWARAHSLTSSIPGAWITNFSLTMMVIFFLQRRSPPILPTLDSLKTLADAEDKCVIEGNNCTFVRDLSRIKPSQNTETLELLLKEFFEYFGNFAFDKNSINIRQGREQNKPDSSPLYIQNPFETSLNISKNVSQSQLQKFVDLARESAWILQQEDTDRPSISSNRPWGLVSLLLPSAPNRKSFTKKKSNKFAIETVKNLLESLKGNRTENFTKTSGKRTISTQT
UniProt Q15390: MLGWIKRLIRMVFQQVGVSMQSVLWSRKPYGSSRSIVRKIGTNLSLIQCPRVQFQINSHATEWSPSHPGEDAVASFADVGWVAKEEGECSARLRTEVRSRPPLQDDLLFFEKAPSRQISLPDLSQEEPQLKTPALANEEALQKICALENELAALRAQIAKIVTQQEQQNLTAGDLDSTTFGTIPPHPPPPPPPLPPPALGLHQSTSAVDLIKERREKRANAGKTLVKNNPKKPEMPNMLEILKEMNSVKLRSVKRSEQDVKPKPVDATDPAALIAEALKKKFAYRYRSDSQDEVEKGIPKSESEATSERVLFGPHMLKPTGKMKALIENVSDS
UniProt O00159, whole entry, looked up: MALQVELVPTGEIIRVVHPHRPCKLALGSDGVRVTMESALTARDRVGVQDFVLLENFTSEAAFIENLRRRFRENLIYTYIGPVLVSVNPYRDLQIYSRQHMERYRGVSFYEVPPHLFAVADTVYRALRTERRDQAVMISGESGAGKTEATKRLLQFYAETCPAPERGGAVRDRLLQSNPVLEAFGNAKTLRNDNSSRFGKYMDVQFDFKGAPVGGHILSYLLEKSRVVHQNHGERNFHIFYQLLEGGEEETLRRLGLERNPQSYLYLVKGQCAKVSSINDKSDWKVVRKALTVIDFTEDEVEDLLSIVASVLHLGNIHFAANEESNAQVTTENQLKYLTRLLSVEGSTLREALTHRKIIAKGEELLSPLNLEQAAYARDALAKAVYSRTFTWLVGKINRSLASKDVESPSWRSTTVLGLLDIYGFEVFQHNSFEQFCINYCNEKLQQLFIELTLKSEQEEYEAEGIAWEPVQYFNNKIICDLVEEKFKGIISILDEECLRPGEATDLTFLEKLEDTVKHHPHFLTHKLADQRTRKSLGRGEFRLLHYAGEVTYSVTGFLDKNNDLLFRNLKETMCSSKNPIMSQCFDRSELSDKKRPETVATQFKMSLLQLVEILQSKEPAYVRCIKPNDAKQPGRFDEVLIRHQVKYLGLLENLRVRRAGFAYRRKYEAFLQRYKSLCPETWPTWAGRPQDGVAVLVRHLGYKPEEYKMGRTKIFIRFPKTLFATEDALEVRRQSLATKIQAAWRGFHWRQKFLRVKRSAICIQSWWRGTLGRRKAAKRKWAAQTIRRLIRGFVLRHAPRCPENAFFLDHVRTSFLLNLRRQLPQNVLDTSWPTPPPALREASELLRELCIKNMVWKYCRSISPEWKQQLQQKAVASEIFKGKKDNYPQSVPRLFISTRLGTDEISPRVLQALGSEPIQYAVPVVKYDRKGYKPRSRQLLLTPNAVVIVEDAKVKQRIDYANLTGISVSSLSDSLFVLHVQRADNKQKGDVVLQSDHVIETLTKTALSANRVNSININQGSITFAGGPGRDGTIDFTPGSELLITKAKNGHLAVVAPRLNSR
UniProt P35579, whole entry, looked up: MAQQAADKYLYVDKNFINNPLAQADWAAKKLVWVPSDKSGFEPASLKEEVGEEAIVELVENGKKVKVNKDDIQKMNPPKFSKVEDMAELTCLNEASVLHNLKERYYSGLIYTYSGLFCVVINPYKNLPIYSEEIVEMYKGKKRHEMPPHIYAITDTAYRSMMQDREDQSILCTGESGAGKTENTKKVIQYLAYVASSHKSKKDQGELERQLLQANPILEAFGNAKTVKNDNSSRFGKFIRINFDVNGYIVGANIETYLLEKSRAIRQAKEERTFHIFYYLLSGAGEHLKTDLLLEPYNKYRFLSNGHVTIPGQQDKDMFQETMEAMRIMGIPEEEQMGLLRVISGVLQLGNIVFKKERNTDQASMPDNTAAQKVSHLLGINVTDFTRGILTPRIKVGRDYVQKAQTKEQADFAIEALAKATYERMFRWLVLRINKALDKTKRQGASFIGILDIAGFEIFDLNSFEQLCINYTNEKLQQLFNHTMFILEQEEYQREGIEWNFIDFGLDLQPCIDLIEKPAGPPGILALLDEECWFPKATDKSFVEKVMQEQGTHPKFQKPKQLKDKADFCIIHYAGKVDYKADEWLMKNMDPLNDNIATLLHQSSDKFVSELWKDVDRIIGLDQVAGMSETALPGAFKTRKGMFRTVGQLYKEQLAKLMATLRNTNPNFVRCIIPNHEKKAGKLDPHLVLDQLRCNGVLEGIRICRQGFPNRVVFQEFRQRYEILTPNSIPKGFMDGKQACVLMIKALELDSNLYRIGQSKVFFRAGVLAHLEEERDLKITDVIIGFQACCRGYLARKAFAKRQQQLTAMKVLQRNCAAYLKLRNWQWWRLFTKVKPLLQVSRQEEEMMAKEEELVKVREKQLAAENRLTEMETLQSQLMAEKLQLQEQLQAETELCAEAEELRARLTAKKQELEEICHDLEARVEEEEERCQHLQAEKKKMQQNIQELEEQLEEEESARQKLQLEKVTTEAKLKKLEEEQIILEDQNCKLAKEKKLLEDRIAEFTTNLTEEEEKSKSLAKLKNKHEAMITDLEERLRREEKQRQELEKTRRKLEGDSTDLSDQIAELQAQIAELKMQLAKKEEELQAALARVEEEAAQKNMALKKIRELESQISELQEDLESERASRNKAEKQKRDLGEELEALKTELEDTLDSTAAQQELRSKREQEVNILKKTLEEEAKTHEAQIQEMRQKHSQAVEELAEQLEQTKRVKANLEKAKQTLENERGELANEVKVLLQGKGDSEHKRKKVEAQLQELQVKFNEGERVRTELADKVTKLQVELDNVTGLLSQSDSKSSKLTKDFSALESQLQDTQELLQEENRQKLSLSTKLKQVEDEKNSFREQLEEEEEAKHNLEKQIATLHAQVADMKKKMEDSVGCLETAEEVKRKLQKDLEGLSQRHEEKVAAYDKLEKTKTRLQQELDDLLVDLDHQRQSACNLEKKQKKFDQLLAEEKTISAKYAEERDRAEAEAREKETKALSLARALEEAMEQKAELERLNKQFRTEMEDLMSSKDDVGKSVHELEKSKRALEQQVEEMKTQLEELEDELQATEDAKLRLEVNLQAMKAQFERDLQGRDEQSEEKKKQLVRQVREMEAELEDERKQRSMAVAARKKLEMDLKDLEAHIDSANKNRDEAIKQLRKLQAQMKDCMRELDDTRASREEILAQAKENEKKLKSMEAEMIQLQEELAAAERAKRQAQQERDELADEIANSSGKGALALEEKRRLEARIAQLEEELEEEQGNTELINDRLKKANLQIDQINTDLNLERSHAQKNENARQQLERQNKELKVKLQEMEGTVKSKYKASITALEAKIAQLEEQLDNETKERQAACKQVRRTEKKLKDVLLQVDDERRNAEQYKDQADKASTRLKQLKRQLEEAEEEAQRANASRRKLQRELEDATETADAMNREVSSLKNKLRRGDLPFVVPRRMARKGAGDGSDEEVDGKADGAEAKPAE
UniProt Q15800: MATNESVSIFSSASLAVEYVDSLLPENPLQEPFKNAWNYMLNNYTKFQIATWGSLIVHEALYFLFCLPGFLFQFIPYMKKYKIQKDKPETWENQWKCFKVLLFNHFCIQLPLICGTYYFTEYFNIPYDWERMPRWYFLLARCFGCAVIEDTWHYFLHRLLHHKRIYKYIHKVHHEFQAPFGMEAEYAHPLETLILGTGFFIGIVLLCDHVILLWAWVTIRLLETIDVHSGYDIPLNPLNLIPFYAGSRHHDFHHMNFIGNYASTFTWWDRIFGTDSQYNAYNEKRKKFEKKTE
UniProt Q13496: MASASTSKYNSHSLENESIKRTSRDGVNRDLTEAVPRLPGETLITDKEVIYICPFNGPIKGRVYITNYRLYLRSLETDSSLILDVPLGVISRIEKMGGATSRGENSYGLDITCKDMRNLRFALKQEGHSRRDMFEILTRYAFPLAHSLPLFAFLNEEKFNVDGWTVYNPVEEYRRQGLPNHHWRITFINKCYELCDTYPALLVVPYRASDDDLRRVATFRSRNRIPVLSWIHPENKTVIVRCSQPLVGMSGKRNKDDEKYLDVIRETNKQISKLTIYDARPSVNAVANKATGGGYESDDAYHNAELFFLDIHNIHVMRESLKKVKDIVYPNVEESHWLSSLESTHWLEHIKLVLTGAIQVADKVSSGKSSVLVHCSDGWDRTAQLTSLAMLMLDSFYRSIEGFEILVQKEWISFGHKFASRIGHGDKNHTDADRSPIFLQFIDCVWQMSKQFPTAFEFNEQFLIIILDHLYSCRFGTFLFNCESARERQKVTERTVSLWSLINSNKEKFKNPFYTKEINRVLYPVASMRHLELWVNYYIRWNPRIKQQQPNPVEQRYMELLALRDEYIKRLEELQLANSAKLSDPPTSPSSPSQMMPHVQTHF
UniProt P58546, whole entry, looked up: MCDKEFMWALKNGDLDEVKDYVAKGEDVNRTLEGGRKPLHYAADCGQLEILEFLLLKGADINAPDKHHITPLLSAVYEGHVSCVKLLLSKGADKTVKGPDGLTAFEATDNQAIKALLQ

Columns and labels:
Experiment in all cases: log2 fold change, soluble protein after heating vs DMSO (PISA); higher = thermal stabilisation; K562 cells, 10 uM, 30 min; active = over 0.2 and 3.5 SD of the protein, either way, in both replicates (recomputed)
[1] = compound: C1COCCN1CCN2C3=CC=CC=C3N=C2NC(=O)C4=CC(=CC=C4)[N+](=O)[O-] [IRAK-1-4 Inhibitor I]
Outline: (§1)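 Thermal stability values are relative to control samples and come from duplicates. They are expressed as log2 fold changes. For measurement, K562 cells (2×10^6 cells/mL) received 10 μM compound for 30 min, and aliquots were heated for 3 min over 48°C-58°C, pooled, and extracted at 4°C in PBS with 0.5% NP-40. Soluble protein, the supernatant after 21,000xg for 90 min, was quantified by TMTpro 16plex LC-MS/MS with equalised channel sums.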

[2] = compound: C=CC(=O)N1CCC[C@@H](n2nc(-c3ccc(Oc4ccccc4)cc3)c3c(N)ncnc32)C1 [ibrutinib]
Outline: as §1

[3] = compound: CC(=O)c1cnc2ccc(-c3cc(Cl)c(O)c(Cl)c3)nc2c1N[C@H]1CC[C@H](CN(C)C)CC1
Outline: as §1

[4] = compound: CC(C)(C)Cn1c(N)nc2ccc(-c3[nH]c(C(C)(C)C)nc3-c3ccc(F)cc3)nc21 [ralimetinib]
Outline: as §1

[5] = compound: CC(C)(O)CC(=O)NCCn1ccc2ncnc(Nc3ccc(Oc4cccc(C(F)(F)F)c4)c(Cl)c3)c21
Outline: as §1

[6] = compound: CC(C)C1=C2N=C(C=C(N2N=C1)NCC3=CC=CC=C3)NCCCCCCN
Outline: as §1

[7] = compound: CC(C)C[C@@H](C=O)NC(=O)[C@H](CC(C)C)NC(=O)[C@H](CC(C)C)NC(=O)OCc1ccccc1
Outline: as §1

[8] = compound: CC(C)N(C[C@H]1O[C@@H](n2cnc3c(N)ncnc32)[C@H](O)[C@@H]1O)[C@H]1C[C@@H](CCc2nc3cc(C(C)(C)C)ccc3[nH]2)C1 [pinometostat]
Outline: as §1

[9] = compound: CC1=C(C(CC(=O)N1)C2=CC=C(C=C2)C(F)(F)F)C(=O)NC3=C(C=C4C(=C3)C=NN4)F
Outline: as §1

[10] = compound: CC1=C(C2=C(C=C1)C(=O)C3=CC=CC=C3N2CCCN)C
Outline: as §1

[11] = compound: CC1=C(C=C(C=C1)NC(=O)C2=CC(=CC=C2)C(C)(C)C#N)NC3=CC4=C(C=C3)N=CN(C4=O)C
Outline: as §1

[12] = compound: CC1=C(C=C(C=C1)NC(=O)C2=CC(=CC=C2)N(C)C)NC(=O)C3=CC=C(C=C3)O
Outline: as §1

[13] = compound: CC1=CC=C(C=C1)SC2=C3C=C(SC3=CN=C2)C(=O)N
Outline: as §1

[14] = compound: CC1=NC(=CC=C1)C2=C(N=C(N2)C(C)(C)C)C3=CC4=NC=CN=C4C=C3
Outline: as §1

[15] = compound: CCCCN(Cc1ccc(C(=O)NO)cc1)C(=O)Nc1ccccc1 [Nexturastat A]
Outline: as §1

[16] = compound: CCCS(=O)(=O)Nc1ccc(F)c(C(=O)c2c[nH]c3ncc(-c4ccc(Cl)cc4)cc23)c1F [vemurafenib]
Outline: as §1

[17] = compound: CCCS(=O)(=O)Nc1ccc(F)c(C(=O)c2c[nH]c3ncc(Cl)cc23)c1F
Outline: as §1

[18] = compound: CCCc1cc(C)[nH]c(=O)c1CNC(=O)c1cc(-c2ccnc(N3CCN(C)CC3)c2)cc2c1cnn2C(C)C
Outline: as §1

[19] = compound: CCN(CC)Cc1ccc2cc(COC(=O)Nc3ccc(C(=O)NO)cc3)ccc2c1 [givinostat]
Outline: as §1

[20] = compound: CCN(CCCOc1ccc2c(Nc3cc(CC(=O)Nc4cccc(F)c4)[nH]n3)ncnc2c1)CCOP(=O)(O)O [barasertib]
Outline: as §1

Measured: log2 fold change

MYO6 isoform 6 (UniProt Q9UM54)
inactive: [1] 0.03 | [2] 0.029 | [3] 0.021 | [4] -0.006 | [5] -0.015 | [6] 0.076 | [7] -0.038 | [8] -0.006 | [9] -0.016 | [10] 0.088 | [11] -0.04 | [12] -0.005 | [13] -0.015 | [14] -0.023 | [15] -0.038 | [16] -0.006 | [17] 0.001 | [18] -0.025 | [19] -0.075 | [20] 0

MRRF (UniProt Q96E11)
inactive: [1] -0.008 | [2] -0.044 | [3] -0.084 | [4] -0.006 | [5] -0.065 | [6] 0.037 | [7] -0.013 | [8] -0.027 | [9] -0.032 | [10] -0.014 | [11] 0.024 | [12] -0.06 | [13] 0.055 | [14] 0.057 | [15] -0.088 | [16] -0.012 | [17] 0.042 | [18] 0.005 | [19] 0.007 | [20] 0.046

MTMR12 (UniProt Q9C0I1)
inactive: [1] 0.01 | [2] -0.018 | [3] -0.012 | [4] -0.041 | [5] -0.006 | [6] 0.078 | [7] -0.007 | [8] -0.033 | [9] 0.029 | [10] 0.031 | [11] -0.024 | [12] 0.027 | [13] -0.002 | [14] -0.009 | [15] -0.01 | [16] -0.001 | [17] -0.008 | [18] -0.027 | [19] -0.005 | [20] -0.012

MYADM (UniProt Q96S97)
inactive: [1] -0.11 | [2] 0.011 | [3] -0.046 | [4] 0.027 | [5] -0.005 | [6] -0.053 | [7] -0.046 | [8] -0.032 | [9] 0.034 | [10] 0.03 | [11] 0.068 | [12] -0.019 | [13] -0.001 | [14] 0.054 | [15] -0.044 | [16] -0.01 | [17] 0.008 | [18] -0.05 | [19] -0.035 | [20] -0.057

MTPAP (UniProt Q9NVV4)
inactive: [1] -0.129 | [2] 0.003 | [3] -0.052 | [4] 0.069 | [5] -0.007 | [6] -0.129 | [7] 0.141 | [8] 0.166 | [9] -0.018 | [10] 0.003 | [11] -0.051 | [12] -0.021 | [13] -0.045 | [14] 0.009 | [15] 0.245 | [16] -0.016 | [17] 0.065 | [18] 0.244 | [19] -0.003 | [20] 0.024

MUC1, A0A087WWM1
inactive: [1] 0.136 | [2] 0.039 | [3] -0.028 | [4] -0.15 | [5] 0 | [6] 0.128 | [7] 0.046 | [8] -0.085 | [9] -0.038 | [10] -0.061 | [11] 0.032 | [12] 0.036 | [13] 0.06 | [14] 0.027 | [15] 0.026 | [16] -0.1 | [17] -0.023 | [18] -0.016 | [19] -0.013 | [20] 0.034

MTFR1 (UniProt Q15390)
inactive: [1] 0.027 | [2] -0.053 | [3] -0.03 | [4] -0.015 | [5] -0.049 | [6] -0.156 | [7] -0.028 | [8] -0.006 | [9] 0.087 | [10] 0.111 | [11] -0.063 | [12] -0.02 | [13] 0.118 | [14] 0.012 | [15] 0.034 | [16] 0.045 | [17] 0.037 | [18] -0.021 | [19] -0.005 | [20] -0.03

MYO1C (UniProt O00159)
inactive: [1] -0.384 | [2] -0.239 | [3] -0.079 | [4] 0.109 | [5] -0.253 | [6] -0.236 | [7] 0.07 | [8] 0.385 | [9] 0 | [10] 0.122 | [11] -0.017 | [12] -0.001 | [13] -0.019 | [14] 0.224 | [15] 0.268 | [16] -0.046 | [17] 0.13 | [18] 0.057 | [19] 0.043 | [20] -0.031

Two neighbouring entries from above, quoted:
MYADM (UniProt Q96S97)
inactive: [1] -0.11 | [2] 0.011 | [3] -0.046 | [4] 0.027 | [5] -0.005 | [6] -0.053 | [7] -0.046 | [8] -0.032 | [9] 0.034 | [10] 0.03 | [11] 0.068 | [12] -0.019 | [13] -0.001 | [14] 0.054 | [15] -0.044 | [16] -0.01 | [17] 0.008 | [18] -0.05 | [19] -0.035 | [20] -0.057

MTPAP (UniProt Q9NVV4)
inactive: [1] -0.129 | [2] 0.003 | [3] -0.052 | [4] 0.069 | [5] -0.007 | [6] -0.129 | [7] 0.141 | [8] 0.166 | [9] -0.018 | [10] 0.003 | [11] -0.051 | [12] -0.021 | [13] -0.045 | [14] 0.009 | [15] 0.245 | [16] -0.016 | [17] 0.065 | [18] 0.244 | [19] -0.003 | [20] 0.024

Next results:

MVB12A (UniProt Q96EY5)
inactive: [1] -0.014 | [2] 0.039 | [3] -0.244 | [4] -0.065 | [5] -0.229 | [6] -0.127 | [7] 0.037 | [8] 0.061 | [9] 0.058 | [10] 0.099 | [11] -0.015 | [12] 0.021 | [13] 0.018 | [14] -0.071 | [15] -0.01 | [16] 0.041 | [17] 0.038 | [18] -0.024 | [19] 0.071 | [20] 0.069

MYH9 (UniProt P35579)
inactive: [1] 0.017 | [2] -0.034 | [3] 0.032 | [4] 0.005 | [5] -0.05 | [6] 0.011 | [7] -0.032 | [8] -0.031 | [9] -0.001 | [10] -0.003 | [11] 0.011 | [12] -0.013 | [13] 0.04 | [14] 0.061 | [15] -0.136 | [16] 0.046 | [17] 0.081 | [18] -0.005 | [19] -0.029 | [20] 0.009

MRTO4 (UniProt Q9UKD2)
inactive: [1] -0.282 | [2] -0.041 | [3] 0.036 | [4] 0.142 | [5] 0 | [6] -0.208 | [7] 0.116 | [8] 0.314 | [9] 0.014 | [10] 0.052 | [11] 0.015 | [12] -0.067 | [13] -0.069 | [14] -0.107 | [15] 0.209 | [16] 0.114 | [17] 0.136 | [18] 0.159 | [19] 0.217 | [20] 0.018

MSMO1 (UniProt Q15800)
inactive: [1] 0.066 | [2] 0.036 | [3] 0.004 | [4] 0.031 | [5] -0.053 | [6] 0.014 | [7] -0.009 | [8] 0.038 | [9] 0.055 | [10] -0.04 | [11] -0.006 | [12] 0.026 | [13] -0.018 | [14] -0.001 | [15] -0.034 | [16] -0.016 | [17] -0.001 | [18] -0.064 | [19] -0.055 | [20] -0.027

MTM1 (UniProt Q13496)
inactive: [1] -0.023 | [2] 0.029 | [3] -0.02 | [4] -0.032 | [5] 0.034 | [6] 0.019 | [7] -0.03 | [8] 0.007 | [9] -0.014 | [10] 0.015 | [11] -0.023 | [12] 0.016 | [13] 0.035 | [14] -0.009 | [15] -0.046 | [16] 0.014 | [17] 0.024 | [18] 0.053 | [19] 0.003 | [20] 0.006

MYH14 isoform 2 (UniProt Q7Z406)
inactive: [1] 0.049 | [2] -0.007 | [3] 0.063 | [4] 0 | [5] -0.009 | [6] 0.008 | [7] -0.022 | [8] -0.011 | [9] 0.144 | [10] -0.033 | [11] -0.044 | [12] -0.021 | [13] 0.052 | [14] 0.015 | [15] 0.018 | [16] 0.026 | [17] 0.091 | [18] -0.002 | [19] -0.078 | [20] 0.034

MTPN (UniProt P58546)
inactive: [1] -0.004 | [2] -0.069 | [3] 0.009 | [4] -0.007 | [5] -0.058 | [6] 0.068 | [7] -0.011 | [8] -0.092 | [9] 0.01 | [10] 0.275 | [11] -0.039 | [12] -0.055 | [13] 0.061 | [14] 0.037 | [15] 0 | [16] -0.011 | [17] -0.015 | [18] -0.01 | [19] -0.035 | [20] 0.123

MSI1 (UniProt O43347)
inactive: [1] -0.043 | [2] 0.036 | [3] -0.027 | [4] 0.121 | [5] -0.01 | [6] 0.102 | [7] -0.028 | [8] 0.107 | [9] 0.035 | [10] -0.072 | [11] 0.061 | [12] 0.002 | [13] -0.034 | [14] 0.049 | [15] 0.185 | [16] -0.091 | [17] -0.024 | [18] 0.017 | [19] 0.03 | [20] -0.092
